Measured values reported in the supplement of paper PMC9744312.
Where a name gives a salt, the structure may show the parent alone. Some of the results follow. The data scatter; read single values as rough.

Test system: Peyronie's disease tunica albuginea primary fibroblasts
Experiment: cell viability (DRAQ5 nuclear stain) relative to TGF-beta1-only control; higher = more viable cells
Details: 10 µM; TGF-beta1 10 ng/mL; 72 h

Row | Structure (SMILES) | cell viability [%]
1 | CC(C)OC(=O)CCC/C=C\C[C@@H]1[C@@H](/C=C/[C@@H](O)COc2cccc(C(F)(F)F)c2)[C@H](O)C[C@@H]1O [Travoprost] | 85.3
2 | O=C1CN(/N=C/c2ccc(-c3ccc([N+](=O)[O-])cc3)o2)C(=O)N1 [Dantrolene sodium] | 88.8
3 | O=C1CN(/N=C/c2ccc(-c3ccc([N+](=O)[O-])cc3)o2)C(=O)N1 [Dantrolene sodium hemiheptahydrate] | 99.3
4 | CC1(O)CCC(C(C)(C)O)CC1 (stereo not drawn) [Terpin hydrate] | 83.2
5 | CCOC(=O)n1ccn(C)c1=S [Carbimazole] | 85.7
6 | C[C@H](N)[C@H](O)c1cccc(O)c1 [Metaraminol Bitartrate] | 99.8
7 | CC1(C)S[C@@H]2[C@H](NC(=O)C(C(=O)O)c3ccccc3)C(=O)N2[C@H]1C(=O)O (stereo partly drawn) [Carbenicillin disodium] | 98.4
8 | CC(C)(C)C(=O)C(Oc1ccc(Cl)cc1)n1ccnc1 (stereo not drawn) [Climbazole] | 37.2
9 | Cc1ccccc1OCC(O)CO (stereo not drawn) [Mephenesin] | 88
10 | Cl.NCCCC[C@H](N)C(=O)O [L-Lysine hydrochloride] | 92.4
11 | COC(=O)N[C@H](C(=O)N1CCC[C@H]1c1ncc(-c2ccc(-c3ccc(-c4cnc([C@@H]5CCCN5C(=O)[C@@H](NC(=O)OC)C(C)C)[nH]4)cc3)cc2)[nH]1)C(C)C | 93
12 | O=NN(CCCl)C(=O)NCCCl [Carmustine] | 90
13 | CCOC(=O)c1ncn2c1CN(C)C(=O)c1cc(F)ccc1-2 [Flumazenil] | 87.9
14 | Cc1cc(C)c2c(c1)[C@@H](N(Cc1cc(C(F)(F)F)cc(C(F)(F)F)c1)c1nnn(C)n1)CCCN2C[C@H]1CC[C@H](C(=O)O)CC1 | 85.3
15 | COc1cc(C(C)=O)ccc1OCCCN1CCC(c2noc3cc(F)ccc23)CC1 [Iloperidone] | 86.4
16 | CCCC1O[C@@H]2C[C@H]3[C@@H]4CCC5=CC(=O)C=C[C@]5(C)[C@H]4[C@@H](O)C[C@]3(C)[C@]2(C(=O)CO)O1 (stereo partly drawn) [Budesonide] | 82.8
17 | CCOc1ccc(Cc2cc([C@]34OC[C@](CO)(O3)[C@@H](O)[C@H](O)[C@H]4O)ccc2Cl)cc1 [Ertugliflozin] | 84.4

Row | Structure (SMILES) | cell viability [%]
18 | Cc1cccc(C)c1N(CC(=O)Nc1ccc(-c2ncon2)cc1)C(=O)C1CCS(=O)(=O)CC1 [Amenamevir] | 101
19 | CCCCC(CC)COC(=O)C=Cc1ccc(OC)cc1 (stereo not drawn) [Octinoxate] | 90.8
20 | CC(C)NCC(O)c1ccc(O)c(O)c1 (stereo not drawn) [Isoprenaline HCl] | 96.7
21 | COc1ccc2[nH]c([S@@+]([O-])Cc3ncc(C)c(OC)c3C)nc2c1 [Esomeprazole sodium] | 94.2
22 | COc1ccc2[nH]c([S@@+]([O-])Cc3ncc(C)c(OC)c3C)nc2c1 [NEXIUM (esomeprazole magnesium)] | 79.5
23 | CCCCOC(=O)c1ccccc1Nc1cccc(C(F)(F)F)c1 [Ufenamate] | 122
24 | COc1ccc(C(=O)c2ccccc2)c(O)c1 [Oxybenzone] | 112
25 | COc1ncnc(NS(=O)(=O)c2ccc(N)cc2)c1OC [Sulfadoxine] | 88
26 | CC(=O)OCC(=O)[C@@]1(O)[C@H](C)C[C@H]2[C@@H]3CCC4=CC(=O)C=C[C@]4(C)[C@@]3(F)[C@@H](O)C[C@@]21C [Dexamethasone Acetate] | 70.4
27 | COc1ccc(C(=O)CC(=O)c2ccc(C(C)(C)C)cc2)cc1 [Avobenzone] | 87.8
28 | CCOC(=O)C1=C(C)NC(C)=C(C(=O)OCC)C1c1ccccc1/C=C/C(=O)OC(C)(C)C [Lacidipine] | 85.1
29 | CCc1ccc(Cc2ccc3c(c2)[C@]2(OC3)O[C@H](CO)[C@@H](O)[C@H](O)[C@H]2O)cc1 [Tofogliflozin(CSG 452)] | 95.2
30 | CCOc1cc(CC(=O)N[C@@H](CC(C)C)c2ccccc2N2CCCCC2)ccc1C(=O)O [Repaglinide] | 93.7
31 | CN[C@@H]1[C@@H](O)[C@@H](O[C@@H]2[C@@H](O)[C@H](O[C@H]3O[C@H](CN)[C@@H](O)[C@H](O)[C@H]3O)[C@@H](N)C[C@H]2NC(=O)[C@@H](O)CN)OC[C@]1(C)O [Isepamicin Sulphate] | 95.7
32 | C#C[C@]1(O)CC[C@H]2[C@@H]3CCc4cc(O)ccc4[C@H]3CC[C@@]21C [Ethinyl Estradiol] | 82.3
33 | Cc1occc(=O)c1O [Maltol] | 93

A second format for some results above:
Row	Structure (SMILES)	cell viability [%]
19	CCCCC(CC)COC(=O)C=Cc1ccc(OC)cc1 (stereo not drawn) [Octinoxate]	90.8
20	CC(C)NCC(O)c1ccc(O)c(O)c1 (stereo not drawn) [Isoprenaline HCl]	96.7
